According to patent US12415832B2, “B-catenin/B-cell Lymphoma 9 protein-protein interaction inhibiting peptidomimetics” (University of South Florida, priority 2019, dated 2025):
Some results were stated once for a whole list of compounds, not compound by compound.

Test system: SW480 cell
Assay type: cell-based
Settings: MTS
Procedure: Colorectal cancer cell lines SW480 were seeded in 96-well plates at 5×10^3 cells/well, maintained overnight at 37° C., and incubated in the presence of inhibitors at various concentrations. Cell viability was monitored after 72 h using a freshly prepared mixture of one-part phenazine methosulfate (PMS, Sigma) solution (0.92 mg/mL) and 19 parts MTs agent (3-(4,5-dimethylthiazol-2-yl)-5-(3-carboxymethoxyphenyl)-2-(4-sulfophenyl)-2H-tetrazolium, inner salt, Promega) solution (2 mg/mL). Cells were incubated in 10 μL of this solution at 37° C. for 3 h, and A490 was measured. The effect of each compound is expressed as the concentration required to reduce A490 by 50% (IC50) relative to vehicle-treated cells. Experiments were performed in triplicate and repeated for three times.

CCC(C)[C@@H](CN(CC(=O)N[C@@H](CC(C)C)CN(CC(=O)N[C@@H](CC(C)C)CN(CC(N)=O)S(=O)(=O)Cc1ccccc1)S(=O)(=O)CC(C)C)S(C)(=O)=O)NC(=O)CN(C[C@H](CCCNC(=N)N)NC(=O)CN(C[C@H](CC(C)C)NC(=O)CN(C[C@@H](NC(=O)CN(C[C@H](CC(C)C)NC(=O)CN(C[C@H](CCCNC(=N)N)NC(=O)CN(C[C@H](CCCNC(=N)N)NC(=O)CN(C[C@H](CCC(=O)O)NC(C)=O)S(=O)(=O)CCN)S(C)(=O)=O)S(C)(=O)=O)S(=O)(=O)CCN)C(C)O)S(=O)(=O)CC(C)C)S(=O)(=O)CCN)S(=O)(=O)CC(C)C (stereo partly drawn) [Peptide 2]
effect on SW480 cell proliferation, in words: inhibited cancer cell proliferation in dose-dependent manners

CCC(C)[C@@H](CN(CC(=O)N[C@@H](CC(C)C)CN(CC(=O)N[C@@H](CC(C)C)CN(CC(N)=O)S(=O)(=O)Cc1ccccc1)S(=O)(=O)CC(C)C)S(C)(=O)=O)NC(=O)CN(C[C@H](CCCNC(=N)N)NC(=O)CN(C[C@H](CC(C)C)NC(=O)CN(C[C@@H](NC(=O)CN(C[C@H](CC(C)C)NC(=O)CN(C[C@H](CCCNC(=N)N)NC(=O)CN(C[C@H](CCCNC(=N)N)NC(=O)CN(C[C@H](CCC(=O)O)NC(C)=O)S(C)(=O)=O)S(C)(=O)=O)S(C)(=O)=O)S(=O)(=O)CCN)C(C)O)S(=O)(=O)CC(C)C)S(=O)(=O)CCN)S(=O)(=O)CC(C)C (stereo partly drawn) [Peptide 3]
effect on SW480 cell proliferation, in words: inhibited cancer cell proliferation in dose-dependent manners

CCC(C)[C@@H](CN(CC(=O)N[C@@H](CC(C)C)CN(CC(=O)N[C@@H](CC(C)C)CN(CC(N)=O)S(=O)(=O)Cc1ccccc1)S(=O)(=O)CC(C)C)S(C)(=O)=O)NC(=O)CN(C[C@H](CCCNC(=N)N)NC(=O)CN(C[C@H](CC(C)C)NC(=O)CN(C[C@@H](NC(=O)CN(C[C@H](CC(C)C)NC(=O)CN(C[C@H](CCCNC(=N)N)NC(=O)CN(C[C@H](C)NC(=O)CN(C[C@H](CCC(=O)O)NC(C)=O)S(=O)(=O)CCN)S(C)(=O)=O)S(C)(=O)=O)S(=O)(=O)CCN)C(C)O)S(=O)(=O)CC(C)C)S(=O)(=O)CCN)S(=O)(=O)CC(C)C (stereo partly drawn) [Peptide 4]
effect on SW480 cell proliferation, in words: inhibited cancer cell proliferation in dose-dependent manners

CCC(C)[C@@H](CN(CC(=O)N[C@@H](CC(C)C)CN(CC(=O)N[C@@H](CC(C)C)CN(CC(N)=O)S(=O)(=O)Cc1ccccc1)S(=O)(=O)CC(C)C)S(C)(=O)=O)NC(=O)CN(C[C@H](CCCNC(=N)N)NC(=O)CN(C[C@H](C)NC(=O)CN(C[C@@H](NC(=O)CN(C[C@H](CC(C)C)NC(=O)CN(C[C@H](CCCNC(=N)N)NC(=O)CN(C[C@H](CCCNC(=N)N)NC(=O)CN(C[C@H](CCC(=O)O)NC(C)=O)S(=O)(=O)CCN)S(C)(=O)=O)S(C)(=O)=O)S(=O)(=O)CCN)C(C)O)S(=O)(=O)CC(C)C)S(=O)(=O)CCN)S(=O)(=O)CC(C)C (stereo partly drawn) [Peptide 5]
effect on SW480 cell proliferation, in words: inhibited cancer cell proliferation in dose-dependent manners

CC(=O)N[C@@H](CCC(=O)O)CN(CC(=O)N[C@@H](CCCNC(=N)N)CN(CC(=O)N[C@@H](CCCNC(=N)N)CN(CC(=O)N[C@@H](CC(C)C)CN(CC(=O)N[C@H](CN(CC(=O)N[C@@H](CC(C)C)CN(CC(=O)N[C@@H](CCCNC(=N)N)CN(CC(=O)N[C@@H](C)CN(CC(=O)N[C@@H](CC(C)C)CN(CC(=O)N[C@@H](CC(C)C)CN(CC(N)=O)S(=O)(=O)Cc1ccccc1)S(=O)(=O)CC(C)C)S(C)(=O)=O)S(=O)(=O)CC(C)C)S(=O)(=O)CCN)S(=O)(=O)CC(C)C)C(C)O)S(=O)(=O)CCN)S(C)(=O)=O)S(C)(=O)=O)S(=O)(=O)CCN (stereo partly drawn) [Peptide 6]
effect on SW480 cell proliferation, in words: inhibited cancer cell proliferation in dose-dependent manners

CCC(C)[C@@H](CN(CC(=O)N[C@@H](CC(C)C)CN(CC(=O)N[C@@H](C)CN(CC(N)=O)S(=O)(=O)Cc1ccccc1)S(=O)(=O)CC(C)C)S(C)(=O)=O)NC(=O)CN(C[C@H](CCCNC(=N)N)NC(=O)CN(C[C@H](CC(C)C)NC(=O)CN(C[C@@H](NC(=O)CN(C[C@H](CC(C)C)NC(=O)CN(C[C@H](CCCNC(=N)N)NC(=O)CN(C[C@H](CCCNC(=N)N)NC(=O)CN(C[C@H](CCC(=O)O)NC(C)=O)S(=O)(=O)CCN)S(C)(=O)=O)S(C)(=O)=O)S(=O)(=O)CCN)C(C)O)S(=O)(=O)CC(C)C)S(=O)(=O)CCN)S(=O)(=O)CC(C)C (stereo partly drawn) [Peptide 7]
effect on SW480 cell proliferation, in words: inhibited cancer cell proliferation in dose-dependent manners
